Each structure is given as a SMILES string. The list shows a part of the results. Further columns of the screen follow, without active or inactive calls. The list favours compounds with an active or inconclusive main result. Potencies come from curve fits of mixed quality, noted in brackets.

A short description of the assay: qHTS Assay to Find Inhibitors of Chronic Active B-Cell Receptor Signaling. The conditions noted are these: ABC-DLBCL IkBa-CBG/CBR reporter, luminescence ratio (green luciferase fused to IkBa over red control in TMD8 lymphoma cells), 4 h; measured here: CBR red luminescence, cell number. A digest of the protocol: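 Concentration-response series (up to 46 uM) were applied to TMD8 dual-reporter cells for 4 h at 37C with doxycycline. Green/red ratio, after filter-overlap correction, defined %Activity; red signal alone was normalised to basal cells and zero luminescence.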
(qHTS replaces the single test concentration by a dilution series.)
Regarding `Cc1cc(NC(=O)COc2ccc(C)c(C)c2)no1`, the AC50 (as a rule, the midpoint of the concentration-response curve, whichever way the signal moves) was 3.98 µM [rising, single point].
`O=C(CN1CCCCCC1)Nc1ccc(Br)cc1Br`: the AC50 is 20.6 µM [rising, single point].
`COC(=O)c1ccc(NC(=O)CCCN2C(=O)NC(C)(C)C2=O)cc1`: the AC50 is 16.4 µM [falling, single point].
The value for `O=C(Nc1ccc(NC(=O)c2cccs2)cc1)c1ccc(Br)o1` was 25.9 µM [rising, single point]; that for `COc1ccccc1C(=O)Nc1nc2ccc(S(C)(=O)=O)cc2s1` was 14.6 µM [rising, partial curve, poor fit]; that for `CSc1nc2nc3c(cn2n1)C(=O)CC(c1ccccc1)C3` (centres undefined) was 0.13 µM [rising, full curve].
The value for `O=S(=O)(c1cccc(Cl)c1)n1c(/C=C/c2ccccc2Cl)nc2ccccc21` was 11.2 µM [falling, partial curve, poor fit]; that for `O=[N+]([O-])c1ccc(OCc2cnc(Cl)s2)cc1` was 14.1 µM [rising, partial curve, poor fit].
On to `CN(C)c1cccc(C(=O)N/N=C/c2ccsc2)c1`, for which the AC50 was 8.2 µM [falling, partial curve].
In the case of `O=C1Nc2ccccc2N(O)N1c1cc(-c2ccccc2)[nH]n1`, the AC50 is 10 µM [falling, single point].
To `Cc1ccc(CSC2=Nc3ccccc3C3=NC(=O)CN23)cc1` belongs 5.01 µM [rising, full curve]; to `O=C(N/N=C/c1ccc(-c2ccccc2[N+](=O)[O-])o1)c1cccnc1`, 9.2 µM [falling, partial curve, poor fit].
To `CCCCSc1nc2c(cc1C#N)CCC2` belongs 18.4 µM [rising, single point]; to `COc1cc(C(=O)OCCCc2cc3ccccc3c(=O)o2)cc(OC)c1OC`, 6.51 µM [rising, single point]; to `N#C/C(=C\c1ccc(-c2ccc(C(=O)O)cc2)o1)C(=O)Nc1ccc(F)cc1`, 4.47 µM [falling, partial curve, poor fit].
The value for `Cc1ccn2c(=O)nc(SCC(=O)Nc3cccc4ccccc34)nc2c1` was 29.1 µM [falling, single point]; that for `COc1ccc(CNc2ccc(C)cc2)cc1Br` was 20.6 µM [rising, single point]; that for `CC(C)CCOc1ccc(C(CC(N)=O)C(=O)O)cc1` (centres undefined) was 6.51 µM [rising, single point].
`CC(C)(C)NC(=O)C(c1cccs1)N(C(=O)c1csnn1)c1cccc(F)c1` (centres undefined): the half-maximal activity concentration (AC50) is 0.1 µM [rising, full curve, poor fit].

For the origin of these results see PubChem BioAssay AID493014 (National Center for Advancing Translational Sciences (NCATS), 2011).
